Laboratory results from the supplement of paper PMC12067093, “Discovery and optimisation of a covalent ligand for TRIM25 and its application to targeted protein ubiquitination” (Chemical Science, 2025).
The other results are listed elsewhere or left out.

The chains behind the UniProt entries cited, without tags or fusion partners. Where a name states a change or a piece, a line headed by the entry shows the natural chain unless it says otherwise.
UniProt Q8NBA8: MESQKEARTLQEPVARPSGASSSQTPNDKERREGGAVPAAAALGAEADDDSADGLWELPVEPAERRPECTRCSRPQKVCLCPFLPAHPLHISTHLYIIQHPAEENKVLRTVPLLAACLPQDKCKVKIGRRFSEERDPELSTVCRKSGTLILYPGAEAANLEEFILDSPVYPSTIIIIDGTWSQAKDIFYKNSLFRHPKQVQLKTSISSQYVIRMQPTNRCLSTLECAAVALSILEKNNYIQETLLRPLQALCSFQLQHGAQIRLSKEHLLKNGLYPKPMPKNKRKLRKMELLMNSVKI
UniProt Q92785, whole entry, looked up: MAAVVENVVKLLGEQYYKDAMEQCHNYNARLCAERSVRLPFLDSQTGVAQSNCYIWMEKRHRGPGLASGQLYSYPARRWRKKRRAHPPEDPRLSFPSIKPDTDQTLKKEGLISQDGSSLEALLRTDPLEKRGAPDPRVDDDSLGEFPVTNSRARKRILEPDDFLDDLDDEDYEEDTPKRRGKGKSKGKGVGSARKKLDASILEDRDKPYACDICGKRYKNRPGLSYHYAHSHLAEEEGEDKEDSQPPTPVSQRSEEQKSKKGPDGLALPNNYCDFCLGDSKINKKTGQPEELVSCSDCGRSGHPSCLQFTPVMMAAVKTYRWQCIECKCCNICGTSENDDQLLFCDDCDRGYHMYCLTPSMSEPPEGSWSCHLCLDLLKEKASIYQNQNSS
UniProt Q8NF50: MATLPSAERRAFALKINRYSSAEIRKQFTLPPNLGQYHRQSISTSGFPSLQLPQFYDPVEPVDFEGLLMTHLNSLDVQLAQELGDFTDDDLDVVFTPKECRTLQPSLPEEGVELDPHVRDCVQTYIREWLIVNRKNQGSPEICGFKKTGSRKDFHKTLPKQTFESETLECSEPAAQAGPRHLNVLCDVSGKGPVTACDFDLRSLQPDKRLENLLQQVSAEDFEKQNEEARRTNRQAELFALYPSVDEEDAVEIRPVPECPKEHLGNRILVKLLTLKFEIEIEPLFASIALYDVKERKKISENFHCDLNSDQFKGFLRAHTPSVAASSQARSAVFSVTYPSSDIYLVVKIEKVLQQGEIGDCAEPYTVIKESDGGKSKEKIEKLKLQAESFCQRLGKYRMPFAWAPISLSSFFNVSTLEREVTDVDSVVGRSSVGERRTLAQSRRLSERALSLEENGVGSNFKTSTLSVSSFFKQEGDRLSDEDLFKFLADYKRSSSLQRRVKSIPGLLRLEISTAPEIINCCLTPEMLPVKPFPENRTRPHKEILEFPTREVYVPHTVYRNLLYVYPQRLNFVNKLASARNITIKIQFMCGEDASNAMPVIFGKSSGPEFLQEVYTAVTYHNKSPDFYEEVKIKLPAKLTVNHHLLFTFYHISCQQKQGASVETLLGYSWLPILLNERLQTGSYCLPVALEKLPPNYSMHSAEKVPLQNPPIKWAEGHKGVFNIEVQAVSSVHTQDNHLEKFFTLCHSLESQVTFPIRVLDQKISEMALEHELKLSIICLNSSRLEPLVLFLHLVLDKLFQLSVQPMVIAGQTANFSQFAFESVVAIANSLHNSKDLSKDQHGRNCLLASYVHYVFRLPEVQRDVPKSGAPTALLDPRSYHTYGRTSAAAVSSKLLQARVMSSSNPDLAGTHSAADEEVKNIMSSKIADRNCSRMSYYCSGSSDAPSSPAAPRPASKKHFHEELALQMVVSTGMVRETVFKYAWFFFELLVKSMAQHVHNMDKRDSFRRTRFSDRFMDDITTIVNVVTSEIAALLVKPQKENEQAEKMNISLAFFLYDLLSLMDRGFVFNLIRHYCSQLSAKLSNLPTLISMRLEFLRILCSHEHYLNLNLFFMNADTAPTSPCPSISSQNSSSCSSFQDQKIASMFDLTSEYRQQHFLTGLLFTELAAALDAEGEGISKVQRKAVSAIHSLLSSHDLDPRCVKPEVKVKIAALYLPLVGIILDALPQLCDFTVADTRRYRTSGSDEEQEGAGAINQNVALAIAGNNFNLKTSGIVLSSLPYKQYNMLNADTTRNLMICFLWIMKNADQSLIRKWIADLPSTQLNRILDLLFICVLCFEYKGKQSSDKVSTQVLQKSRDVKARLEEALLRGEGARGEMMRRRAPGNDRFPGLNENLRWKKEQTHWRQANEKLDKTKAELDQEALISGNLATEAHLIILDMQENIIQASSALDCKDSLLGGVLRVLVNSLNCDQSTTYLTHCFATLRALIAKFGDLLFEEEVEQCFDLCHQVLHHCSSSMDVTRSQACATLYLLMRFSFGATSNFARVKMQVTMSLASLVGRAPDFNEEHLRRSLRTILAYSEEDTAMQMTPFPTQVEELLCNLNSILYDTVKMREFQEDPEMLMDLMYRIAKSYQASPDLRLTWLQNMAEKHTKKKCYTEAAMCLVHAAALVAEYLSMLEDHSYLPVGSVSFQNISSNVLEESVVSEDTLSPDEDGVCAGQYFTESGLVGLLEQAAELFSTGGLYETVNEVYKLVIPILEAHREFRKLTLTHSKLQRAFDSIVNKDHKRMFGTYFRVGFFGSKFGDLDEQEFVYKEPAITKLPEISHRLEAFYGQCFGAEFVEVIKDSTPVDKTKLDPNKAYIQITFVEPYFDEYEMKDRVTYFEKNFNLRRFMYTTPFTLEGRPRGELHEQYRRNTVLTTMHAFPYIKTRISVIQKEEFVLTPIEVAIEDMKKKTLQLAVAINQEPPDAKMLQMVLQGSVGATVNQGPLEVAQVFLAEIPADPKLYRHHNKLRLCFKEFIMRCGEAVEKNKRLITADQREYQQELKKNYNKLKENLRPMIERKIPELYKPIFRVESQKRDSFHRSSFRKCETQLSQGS
UniProt P55039: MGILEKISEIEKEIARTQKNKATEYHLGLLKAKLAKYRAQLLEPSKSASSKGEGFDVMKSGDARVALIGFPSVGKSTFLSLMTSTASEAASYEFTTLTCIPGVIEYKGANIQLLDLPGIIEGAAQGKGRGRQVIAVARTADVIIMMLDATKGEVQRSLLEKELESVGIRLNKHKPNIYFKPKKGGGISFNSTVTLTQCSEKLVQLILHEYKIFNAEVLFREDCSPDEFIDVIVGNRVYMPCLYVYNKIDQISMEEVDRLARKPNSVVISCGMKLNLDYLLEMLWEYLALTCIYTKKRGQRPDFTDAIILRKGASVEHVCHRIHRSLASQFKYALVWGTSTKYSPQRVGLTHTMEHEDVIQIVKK
UniProt Q96CJ1: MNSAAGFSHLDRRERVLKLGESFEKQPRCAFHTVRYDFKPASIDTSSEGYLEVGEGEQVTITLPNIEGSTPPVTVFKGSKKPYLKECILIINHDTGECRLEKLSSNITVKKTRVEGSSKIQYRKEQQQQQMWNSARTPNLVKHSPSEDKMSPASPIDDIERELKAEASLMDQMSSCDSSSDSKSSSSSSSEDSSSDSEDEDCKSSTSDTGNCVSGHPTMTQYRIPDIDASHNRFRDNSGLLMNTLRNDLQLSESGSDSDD
UniProt Q7L591: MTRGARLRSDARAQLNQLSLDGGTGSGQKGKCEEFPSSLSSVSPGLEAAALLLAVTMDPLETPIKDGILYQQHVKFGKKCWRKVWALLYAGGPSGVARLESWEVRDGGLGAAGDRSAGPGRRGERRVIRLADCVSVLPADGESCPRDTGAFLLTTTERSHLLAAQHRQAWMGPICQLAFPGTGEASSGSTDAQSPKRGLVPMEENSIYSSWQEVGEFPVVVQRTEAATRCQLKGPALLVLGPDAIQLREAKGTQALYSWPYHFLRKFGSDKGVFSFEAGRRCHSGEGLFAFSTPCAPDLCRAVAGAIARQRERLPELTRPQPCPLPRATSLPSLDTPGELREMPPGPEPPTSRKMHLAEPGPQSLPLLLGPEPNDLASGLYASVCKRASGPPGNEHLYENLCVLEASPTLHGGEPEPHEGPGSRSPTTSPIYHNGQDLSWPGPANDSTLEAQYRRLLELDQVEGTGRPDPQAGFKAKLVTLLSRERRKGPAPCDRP
UniProt Q96BY6: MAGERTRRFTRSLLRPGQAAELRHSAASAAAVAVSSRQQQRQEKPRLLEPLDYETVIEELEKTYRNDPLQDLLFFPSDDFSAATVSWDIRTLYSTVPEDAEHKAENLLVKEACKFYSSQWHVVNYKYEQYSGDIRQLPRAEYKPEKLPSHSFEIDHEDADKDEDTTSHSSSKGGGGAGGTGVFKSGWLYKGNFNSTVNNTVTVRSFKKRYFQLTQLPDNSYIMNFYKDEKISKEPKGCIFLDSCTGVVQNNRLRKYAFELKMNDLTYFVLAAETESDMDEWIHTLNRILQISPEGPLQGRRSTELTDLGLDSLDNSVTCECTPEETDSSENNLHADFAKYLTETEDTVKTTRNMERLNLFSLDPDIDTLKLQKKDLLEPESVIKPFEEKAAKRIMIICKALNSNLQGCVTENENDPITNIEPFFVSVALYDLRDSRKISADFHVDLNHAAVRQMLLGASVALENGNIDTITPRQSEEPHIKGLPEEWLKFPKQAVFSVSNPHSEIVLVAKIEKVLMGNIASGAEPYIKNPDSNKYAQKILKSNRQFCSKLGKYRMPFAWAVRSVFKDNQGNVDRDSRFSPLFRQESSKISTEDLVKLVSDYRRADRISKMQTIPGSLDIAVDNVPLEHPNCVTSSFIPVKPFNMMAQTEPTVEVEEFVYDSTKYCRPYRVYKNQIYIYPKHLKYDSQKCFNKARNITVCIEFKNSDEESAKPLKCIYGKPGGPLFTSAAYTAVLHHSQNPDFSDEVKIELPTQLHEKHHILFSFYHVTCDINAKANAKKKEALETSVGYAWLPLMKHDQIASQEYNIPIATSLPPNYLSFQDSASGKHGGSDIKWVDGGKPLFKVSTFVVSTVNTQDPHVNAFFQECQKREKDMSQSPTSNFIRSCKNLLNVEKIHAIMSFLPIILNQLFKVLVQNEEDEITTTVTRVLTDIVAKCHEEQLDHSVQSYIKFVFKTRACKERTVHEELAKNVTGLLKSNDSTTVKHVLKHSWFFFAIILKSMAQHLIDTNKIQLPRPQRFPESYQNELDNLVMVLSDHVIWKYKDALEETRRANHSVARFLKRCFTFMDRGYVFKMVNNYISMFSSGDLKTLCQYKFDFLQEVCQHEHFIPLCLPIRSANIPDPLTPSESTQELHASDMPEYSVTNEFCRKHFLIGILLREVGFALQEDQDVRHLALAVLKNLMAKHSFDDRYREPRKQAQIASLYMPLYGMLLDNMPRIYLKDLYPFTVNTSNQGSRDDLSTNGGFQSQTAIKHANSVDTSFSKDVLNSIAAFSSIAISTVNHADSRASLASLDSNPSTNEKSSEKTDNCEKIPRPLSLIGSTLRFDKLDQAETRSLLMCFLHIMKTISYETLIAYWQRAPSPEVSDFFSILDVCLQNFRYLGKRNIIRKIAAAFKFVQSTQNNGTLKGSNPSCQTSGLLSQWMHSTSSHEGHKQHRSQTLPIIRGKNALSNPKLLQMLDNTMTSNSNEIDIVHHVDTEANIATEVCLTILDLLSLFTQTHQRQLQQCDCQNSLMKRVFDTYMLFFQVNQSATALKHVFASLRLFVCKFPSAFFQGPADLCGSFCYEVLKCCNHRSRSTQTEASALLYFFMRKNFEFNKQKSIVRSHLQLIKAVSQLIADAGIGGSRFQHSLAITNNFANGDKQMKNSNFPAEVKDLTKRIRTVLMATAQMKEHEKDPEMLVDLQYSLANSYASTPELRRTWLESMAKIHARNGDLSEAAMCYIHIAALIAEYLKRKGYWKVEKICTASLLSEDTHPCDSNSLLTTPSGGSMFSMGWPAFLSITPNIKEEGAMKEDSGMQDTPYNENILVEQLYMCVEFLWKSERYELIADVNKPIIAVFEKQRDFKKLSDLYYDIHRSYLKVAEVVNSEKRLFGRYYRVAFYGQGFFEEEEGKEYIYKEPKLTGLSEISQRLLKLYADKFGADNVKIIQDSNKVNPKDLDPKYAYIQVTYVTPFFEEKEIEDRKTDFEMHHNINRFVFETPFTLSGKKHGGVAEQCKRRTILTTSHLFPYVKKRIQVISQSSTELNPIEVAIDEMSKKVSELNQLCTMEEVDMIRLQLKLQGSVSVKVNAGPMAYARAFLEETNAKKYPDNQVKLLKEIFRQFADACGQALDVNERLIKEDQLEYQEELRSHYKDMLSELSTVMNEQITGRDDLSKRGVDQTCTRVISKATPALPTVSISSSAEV
UniProt P60981: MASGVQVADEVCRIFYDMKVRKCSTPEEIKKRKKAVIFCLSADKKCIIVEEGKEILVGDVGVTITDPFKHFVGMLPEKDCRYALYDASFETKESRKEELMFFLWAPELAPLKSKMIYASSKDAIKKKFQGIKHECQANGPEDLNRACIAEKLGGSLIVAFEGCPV
UniProt O43598: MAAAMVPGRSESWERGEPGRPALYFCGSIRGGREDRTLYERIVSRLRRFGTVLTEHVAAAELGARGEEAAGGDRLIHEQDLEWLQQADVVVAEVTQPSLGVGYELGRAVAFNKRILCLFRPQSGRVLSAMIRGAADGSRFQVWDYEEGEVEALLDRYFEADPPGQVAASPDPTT

Each target was assayed with Cc1cc(ccc1-c1ccccc1)C(=O)N1CCCN(CC1)C(=O)CCl [compound 10] (assay: probe-labelled cysteine peptide fold change vs DMSO (competition) (log2 fold change); higher = less target engagement (more negative = stronger competition)). Details: 50 µM; THP-1; incubation time: 4 h.
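Further: competitive profiling in live THP-1 cells: cysteine peptides tagged with an iodoacetamide desthiobiotin (IA-DTB) probe, intensity after compound treatment relative to DMSO-treated cells.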

Target	probe-labelled cysteine peptide fold change
DYNC1H1_Q14204_4216_SACDTVDTWLDDTAK (UniProt Q14204)	0.0655
DUSP27_Q5VZP5_81_ADAECPGMLESAEQLLVEDLYNR (UniProt Q5VZP5)	-0.329
DUT_P33316-2_3_PCSEETPAISPSK (UniProt P33316)	-0.042
DPP8_Q6V1X1_221_LCPADPDWIAFIHSNDIWISNIVTR (UniProt Q6V1X1)	-0.032
DTWD2_Q8NBA8_143_FSEERDPELSTVCR (UniProt Q8NBA8)	-0.608
DSC2_Q02487_797_GGHQTSESCR (UniProt Q02487)	-0.283
DUS2_Q9NX74_373_MCLLEWCR (UniProt Q9NX74)	-0.0544
DPF2_Q92785_298_TGQPEELVSCSDCGR (UniProt Q92785)	0.271
DUS3L_Q96G46_315_LYLAPLTTCGNLPFRR (UniProt Q96G46)	-0.567
DOCK8_Q8NF50_143_NQGSPEICGFK (UniProt Q8NF50)	-0.589
DOCK8_Q8NF50_391_LQAESFCQR (UniProt Q8NF50)	0.1
DRG2_P55039_319_KGASVEHVCHR (UniProt P55039)	0.037
EAF2_Q96CJ1_87+98_ECILIINHDTGECR (UniProt Q96CJ1)	0.555
DOK3_Q7L591_323_ERLPELTRPQPCPLPR (UniProt Q7L591)	-0.258
DYNC1H1_Q14204_867_SLETCMYDHK (UniProt Q14204)	0.032
DYNC1I2_Q13409_331_TTPEYVFHCQSAVMSATFAK (UniProt Q13409)	0.418
DOCK10_Q96BY6_2164_RGVDQTCTR (UniProt Q96BY6)	-0.308
DPF2_Q92785_333_CCNICGTSENDDQLLFCDDCDR (UniProt Q92785)	0.29
DSTN_P60981_46_KCIIVEEGK (UniProt P60981)	-0.534
EARS2_Q5JPH6_411_QGHICR (UniProt Q5JPH6)	-0.168

Target	probe-labelled cysteine peptide fold change
DYNC1H1_Q14204_3693_DPTVEFPPDLCSR (UniProt Q14204)	0.324
DYNC1I2_Q13409_484_AGISEMFEGHQGPITGIHCHAAVGAVDFSHLFVTSSFDWTVK (UniProt Q13409)	0.575
DTNBP1_Q96EV8_302_AKPPSSSSTCTDSATR (UniProt Q96EV8)	-0.201
DPP9_Q86TI2_601_FWASMMEAASCPPDYVPPEIFHFHTR (UniProt Q86TI2)	0.052
DNTTIP1_Q9H147_156_QAEEECAHR (UniProt Q9H147)	-0.151
DSTN_P60981_147_ACIAEK (UniProt P60981)	-0.0332
DNPH1_O43598_117_RILCLFRPQSGR (UniProt O43598)	-0.165
DPYD_Q12882_671_KSEDSGADALELNLSCPHGMGER (UniProt Q12882)	-0.266
DUS1L_Q6P1R4_265_EHPCPLSYVR (UniProt Q6P1R4)	-0.0331
DOCK5_Q9H7D0_316_KHTCGLR (UniProt Q9H7D0)	-0.218
DNPH1_O43598_26_GEPGRPALYFCGSIR (UniProt O43598)	-0.132
DOK1_Q99704_308_IAPCPSQDSLYSDPLDSTSAQAGEGVQR (UniProt Q99704)	-0.0745
DRG2_P55039_319_GASVEHVCHR (UniProt P55039)	0.0514
DTWD2_Q8NBA8_252_NNYIQETLLRPLQALCSFQLQHGAQIR (UniProt Q8NBA8)	-0.358
DSN1_Q9H410_65_KGGNCDLSHQER (UniProt Q9H410)	-0.213
DOK3_Q7L591_295_CHSGEGLFAFSTPCAPDLCR (UniProt Q7L591)	0.0948
DOCK10_Q96BY6_1310_TDNCEK (UniProt Q96BY6)	-0.108
ECH1_Q13011_182_CPKPVIAAVHGGCIGGGVDLVTACDIR (UniProt Q13011)	-0.105
DPYSL2_Q16555_179_DRFQLTDCQIYEVLSVIR (UniProt Q16555)	0.294
